Measurements reported in PubChem BioAssay AID652259 (Drosophila RNAi Screening Center, 2013).
In all, the deposit lists about 22,000 reagents; below is an unselected part of those that have a named target and a result. In the full data, 233 (1.1%) are marked active. 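Light values are raw, unnormalised plate reads; the ratio scores behind the reporter calls were not deposited.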 A number with no mark means an inactive call. Not stated in the record: the amount of reagent, the time to read-out, the dose of the treatment.

Screen: 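Genome-wide hunt for genes that control Wingless pathway activity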 (primary screen)
Cells: Drosophila clone 8 imaginal disc epithelial cells
Knock-down reagent: long dsRNA against Drosophila genes
Challenge: pathway stimulated by co-transfected Wingless expression plasmid
Read-out: 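Dual luciferase reads per well after Wingless plasmid stimulation: reporter firefly light and Renilla control light; activity is firefly divided by Renilla, a ratio not deposited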
Direction: firefly reporter light: higher = more Wg reporter light, before normalisation; Renilla control light: higher = more transfected or surviving cells
Rule for the call: 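Strong candidates differ from their plate mean by at least two out of four per-plate statistical tests; weak candidates meet just one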
Meaning of the calls: active = candidate regulator (raises or lowers reporter); inactive = not a candidate

Target gene | dsRNA | reporter change call, replicate 1 | firefly reporter light, replicate 1 | firefly reporter light, replicate 2 | Renilla control light, replicate 1 | Renilla control light, replicate 2
CG12128 | DRSC06104 | – | 10477 | – | 3414 | –
Arp5 | DRSC16350 | – | 2544 | 7337 | 871 | 1469
CG8870 | DRSC16452 | – | 10243 | – | 1602 | –
mRpL45 | DRSC16146 | – | 21062 | – | 13949 | –
Nmd3 | DRSC18687 | – | 2904 | 8474 | 1414 | 2941
Nmd3 | DRSC22834 | – | 6.73e5 | 7.23e5 | 2.15e5 | 2.90e5
CG8541 | DRSC10989 | – | 1260 | 8891 | 1096 | 3635
dock | DRSC00812 | – | 10420 | – | 3691 | –
Cht9 | DRSC04079 | – | 9700 | – | 2262 | –
CG14883 | DRSC15007 | – | 17861 | – | 4182 | –
CheB93a | DRSC15044 | – | 38509 | – | 6560 | –
Klp59C | DRSC04348 | – | 3261 | 9971 | 715 | 3051
CG31093 | DRSC15689 | – | 11145 | – | 14322 | –
Ten-a | DRSC18924 | – | 3921 | – | 1202 | –
Ten-a | DRSC19496 | – | 20208 | – | 3557 | –
Ten-a | DRSC19700 | – | 19048 | – | 10114 | –
Ten-a | DRSC19793 | – | 24322 | – | 12518 | –
Ten-a | DRSC19864 | – | 14416 | – | 9089 | –
Ten-a | DRSC19865 | – | 15213 | – | 8954 | –
Ten-a | DRSC20290 | – | 22753 | – | 10979 | –
Ten-a | DRSC21461 | – | 6.59e5 | 7.22e5 | 2.74e5 | 1.89e5
veil | DRSC06892 | – | 18721 | – | 5225 | –
bin3 | DRSC04919 | – | 3767 | 7875 | 992 | 2224
CG15605 | DRSC06558 | – | 6235 | – | 2455 | –
BHD | DRSC11017 | – | 10598 | – | 4249 | –
BHD | DRSC22833 | – | 5.00e5 | 4.62e5 | 1.77e5 | 2.02e5
CR31824 | DRSC01517 | – | 16231 | – | 7593 | –
CG31493 | DRSC12583 | – | 7097 | – | 3047 | –
CG30089 | DRSC06126 | – | 18706 | 6.96e5 | 4233 | 3.54e5
CG30089 | DRSC06127 | – | 6711 | – | 625 | –
CG30089 | DRSC06267 | Wg reporter activity lowered | 14817 | – | 4299 | –
CG30089 | DRSC06268 | – | 3811 | – | 1012 | –
CG30089 | DRSC21694 | – | 8.04e5 | 7.41e5 | 2.48e5 | 2.29e5
TBC1D5 | DRSC16421 | – | 5093 | – | 2085 | –
bsh | DRSC03498 | – | 2317 | – | 874 | –
CG6891 | DRSC20016 | – | 5260 | 11192 | 1616 | 4860
Cht11 | DRSC18270 | – | 21477 | – | 10705 | –
Gnpnat | DRSC15405 | – | 3962 | 8444 | 1570 | 3024
CG9135 | DRSC03144 | – | 8341 | – | 4251 | –
CG17193 | DRSC15187 | – | 16826 | – | 4133 | –
CG5071 | DRSC15710 | – | 23336 | – | 24448 | –
CG5071 | DRSC22570 | – | 8.07e5 | 8.32e5 | 3.91e5 | 2.44e5
CG11060 | DRSC06029 | – | 10784 | – | 3332 | –
MED11 | DRSC10739 | – | 6983 | – | 532 | –
CG6149 | DRSC10593 | – | 5027 | – | 3068 | –
Hmr | DRSC17740 | – | 16165 | – | 7201 | –
yellow-d2 | DRSC04591 | – | 2752 | 4488 | 656 | 2001
tej | DRSC07219 | – | 6731 | – | 1360 | –
CG34324 | DRSC19502 | – | 26780 | – | 11899 | –
unc | DRSC20511 | – | 26269 | – | 11520 | –
Prx6c | DRSC06080 | – | 2864 | 6064 | 834 | 1369
cactin | DRSC20576 | – | 15156 | – | 7138 | –
Mef2 | DRSC07468 | – | 11308 | – | 2208 | –
halo | DRSC00705 | – | 3184 | 8221 | 1216 | 3169
ClC-a | DRSC14947 | – | 13325 | – | 3523 | –
ClC-a | DRSC14948 | – | 14189 | – | 4841 | –
ClC-a | DRSC16142 | – | 7077 | – | 2268 | –
TbCMF46 | DRSC02221 | – | 2269 | 7531 | 809 | 2298
His3.3B | DRSC17773 | – | 23308 | – | 16864 | –
His3.3B | DRSC18673 | – | 17792 | – | 6160 | –
COX6B | DRSC19590 | – | 3811 | 8739 | 1269 | 3716
Or42b | DRSC04913 | – | 2611 | 7644 | 923 | 3056
CG33453 | DRSC05782 | – | 13133 | – | 10708 | –
CG31787 | DRSC01632 | – | 20589 | – | 10938 | –
eyg | DRSC11344 | – | 4605 | – | 530 | –
Mst87F | DRSC16747 | – | 19512 | – | 4385 | –
CG31464 | DRSC14345 | – | 15848 | – | 4848 | –
dos | DRSC07992 | – | 1915 | – | 586 | –
dos | DRSC08713 | – | 4470 | – | 1930 | –
CG11474 | DRSC04112 | – | 18275 | – | 6109 | –
Rpt3R | DRSC16501 | – | 10969 | – | 2695 | –
ttm50 | DRSC18587 | – | 2427 | 8340 | 1392 | 2416
gNacalpha | DRSC00654 | – | 2284 | 7957 | 1004 | 2869
Gr64a | DRSC21713 | – | 3.30e5 | 4.49e5 | 2.85e5 | 1.92e5
RnpS1 | DRSC15154 | – | 13333 | – | 2023 | –
Tsp42Eg | DRSC06112 | – | 13792 | – | 3985 | –
CG4835 | DRSC10452 | – | 1120 | 5516 | 692 | 2412
CG14787 | DRSC18606 | – | 14691 | – | 13744 | –
CG10600 | DRSC02074 | – | 6285 | – | 1291 | –
cnk | DRSC07595 | – | 9927 | – | 2801 | –
Prim1 | DRSC11137 | – | 856 | 4632 | 810 | 2308
CG33937 (retired record) | DRSC15148 | – | 12691 | – | 3408 | –
CG7856 | DRSC04896 | – | 3334 | 7008 | 981 | 3031
vari | DRSC03202 | – | 2489 | 8083 | 813 | 2256
rempA | DRSC00327 | – | 2116 | 5532 | 843 | 2416
pix | DRSC10533 | – | 2985 | 9185 | 1013 | 1858
CG42322 | DRSC15112 | – | 2832 | 8861 | 1521 | 1814
CG42322 | DRSC15113 | – | 14528 | – | 4201 | –
CG42322 | DRSC15114 | – | 15752 | – | 2166 | –
Taf9 | DRSC20326 | Wg reporter activity raised (active) | 17728 | 26864 | 672 | 2008
CG3246 | DRSC00584 | – | 3098 | 4338 | 721 | 1723
Plc21C | DRSC00773 | – | 8321 | – | 4473 | –
CG5877 | DRSC19963 | – | 2913 | 9752 | 1160 | 3734

Targets above whose target name begins with T or t:
Target gene | dsRNA | reporter change call, replicate 1 | firefly reporter light, replicate 1 | firefly reporter light, replicate 2 | Renilla control light, replicate 1 | Renilla control light, replicate 2
Ten-a | DRSC18924 | – | 3921 | – | 1202 | –
Ten-a | DRSC19496 | – | 20208 | – | 3557 | –
Ten-a | DRSC19700 | – | 19048 | – | 10114 | –
Ten-a | DRSC19793 | – | 24322 | – | 12518 | –
Ten-a | DRSC19864 | – | 14416 | – | 9089 | –
Ten-a | DRSC19865 | – | 15213 | – | 8954 | –
Ten-a | DRSC20290 | – | 22753 | – | 10979 | –
Ten-a | DRSC21461 | – | 6.59e5 | 7.22e5 | 2.74e5 | 1.89e5
TBC1D5 | DRSC16421 | – | 5093 | – | 2085 | –
tej | DRSC07219 | – | 6731 | – | 1360 | –
TbCMF46 | DRSC02221 | – | 2269 | 7531 | 809 | 2298
ttm50 | DRSC18587 | – | 2427 | 8340 | 1392 | 2416
Tsp42Eg | DRSC06112 | – | 13792 | – | 3985 | –
Taf9 | DRSC20326 | Wg reporter activity raised (active) | 17728 | 26864 | 672 | 2008
